No constants are given. Whether binding was seen depends on the method and setting. Binding seen in cells or lysates may run through a third protein. A yes stands for co-enrichment or nearness to the bait. Other partners may have been found.
Molecular target: S2Lb-GFP (SWD2-LIKE-b, GFP-tagged) (Arabidopsis thaliana)
Test: affinity purification with mass spectrometry

B1: CDKC;1 (enzyme, UniProt Q9LFT8 1-505)
chain: MAMASFGQLNLEEPPPIWGSRSVDCFEKLEQIGEGTYGQVYMAKEIKTGEIVALKKIRMDNEREGFPITAIREIKILKKLHHENVIQLKEIVTSPGRDRDDQGKPDNNKYKGGIYMVFEYMDHDLTGLADRPGLRFTVPQIKCYMKQLLTGLHYCHVNQVLHRDIKGSNLLIDNEGNLKLADFGLARSYSHDHTGNLTNRVITLWYRPPELLLGATKYGPAIDMWSVGCIFAELLHAKPILPGKNEQEQLNKIFELCGSPDEKLWPGVSKMPWFNNFKPARPLKRRVREFFRHFDRHALELLEKMLVLDPAQRISAKDALDAEYFWTDPLPCDPKSLPTYESSHEFQTKKKRQQQRQNEEAAKRQKLQHPPLQHSRLPPLQHGGQSHAAPHWPAGPNHPTNNAPPQVPAGPSHNFYGKPRGPPGPNRYPPSGNQSGGYNQSRGGYSSGSYPPQGRGAPYVAGPRGPSGGPYGVGPPNYTQGGQYGGSGSSGRGQNQRNQQYGWQQ
For B1, the binding was “binds”.
